For two molecules, binding results are on record in PMC3182237.

Results are given in words; binding and its absence hold for the method and conditions named. Some binding calls cover weakened binding; strength is not graded here.

In assay [1] the target is DAF-21 (C. elegans) (UniProt Q18688). Kind of assay: AUC; sedimentation velocity with interference optics; UNC-45N 10 µM, unlabelled DAF-21 5 µM; dc/dt analysis; both purified.
Assay [2] shares this target. Kind of assay: AUC; sedimentation velocity with fluorescence detection; fluorescein-labelled cofactor 300 nM, DAF-21 or variant 6 µM; no nucleotide; 20 to 22°C, 42.000 r.p.m.; dc/dt analysis; both purified.
Assay [3] deals with E292K-DAF-21 (C. elegans) (UniProt Q18688). Kind of assay: condition: only without AMP-PNP (E292K-DAF-21 6 µM); AUC; sedimentation velocity with fluorescence detection; fluorescein-labelled cofactor 300 nM, DAF-21 or variant 6 µM; no nucleotide; 20 to 22°C, 42.000 r.p.m.; dc/dt analysis; both purified.

B1: UNC-45N (aa 1-461) (domain or fragment, UniProt G5EG62 1-461)
chain: MVARVQTAEEIRDEGNAAVKDQDYIKADELYTEALQLTTDEDKALRPVLYRNRAMARLKRDDFEGAQSDCTKALEFDGADVKALFRRSLAREQLGNVGPAFQDAKEALRLSPNDKGIVEVLQRLVKANNDKIKQTTSLANKVTDMEKLAFRGEAKDTEQKMTALNNLLVLCRESESGATGVWNQGALVPFVLNLINDASENEEVTVTAIRILDETIKNSVRCMKFLAMHDPDGPKSVRFVCRLMCKKSTKDFVDATGILVQRVFNAMAKMDRQKEMKPDPEVAEANKIWIIRVLLELQEMLQDPKVGAVQRETCIDLFLKNLMHMDGGIPRGWSWKFVEERGLLALLDVASQIPELCEYPVSAETRQHVAICLQRLEEDMVFDTKRTIFKEKVDMFFNALISRCTNDDEGHKYRIKLSCFLITMLQGPVDIGINLITNDQLTPIMLEMAASQDHLMQGIAA
On to B1, for which the binding result with DAF-21 (C. elegans) [1] was “binds”.

B2: Cep23 (ZC395.10), fluorescein-labelled (protein, UniProt Q23280 1-175)
chain: MAKQPTVLWAQRESLVYLTIEVDEAKIEELKGEGNKLHFQGSSKTDKYEATLEFFDEIDPASVKHTGSSTRVVEITVQKKTPAWWPRLLQNKGKVHWLKVDFGKWKDEDEDDEAEDAGAGIGGGMANGFDLNQYMSQMGGAGGADFGGLEDDEEDDDMPDLEDNEEEEGKNGTRA
modifications: 5-carboxyfluorescein (N-succinimidyl ester) at lysine residues
B2: the binding entry with DAF-21 (C. elegans) [2] was “no binding (condition: without AMP-PNP (DAF-21 6 µM))”; in assay [3], “no binding”.
